We go through one substance from PMC5077136.

Amino acid sequences for entries named in this document (tags omitted).
UniProt G5ECU1: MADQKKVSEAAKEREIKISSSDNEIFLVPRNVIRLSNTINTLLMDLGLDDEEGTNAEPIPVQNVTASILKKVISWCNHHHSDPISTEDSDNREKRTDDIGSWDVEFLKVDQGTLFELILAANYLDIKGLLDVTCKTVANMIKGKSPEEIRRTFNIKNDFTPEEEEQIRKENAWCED

Results are given in words; binding and its absence hold for the method and conditions named. Binding seen in cells or lysates may run through a third protein. Some entries that bind do so weakly or less than the wild type. Tags and fused reporters may be left off the sequences shown.

The target in the assay is T1, GST-WDR23a fusion protein (C. elegans) (UniProt P90794).
T1 sequence: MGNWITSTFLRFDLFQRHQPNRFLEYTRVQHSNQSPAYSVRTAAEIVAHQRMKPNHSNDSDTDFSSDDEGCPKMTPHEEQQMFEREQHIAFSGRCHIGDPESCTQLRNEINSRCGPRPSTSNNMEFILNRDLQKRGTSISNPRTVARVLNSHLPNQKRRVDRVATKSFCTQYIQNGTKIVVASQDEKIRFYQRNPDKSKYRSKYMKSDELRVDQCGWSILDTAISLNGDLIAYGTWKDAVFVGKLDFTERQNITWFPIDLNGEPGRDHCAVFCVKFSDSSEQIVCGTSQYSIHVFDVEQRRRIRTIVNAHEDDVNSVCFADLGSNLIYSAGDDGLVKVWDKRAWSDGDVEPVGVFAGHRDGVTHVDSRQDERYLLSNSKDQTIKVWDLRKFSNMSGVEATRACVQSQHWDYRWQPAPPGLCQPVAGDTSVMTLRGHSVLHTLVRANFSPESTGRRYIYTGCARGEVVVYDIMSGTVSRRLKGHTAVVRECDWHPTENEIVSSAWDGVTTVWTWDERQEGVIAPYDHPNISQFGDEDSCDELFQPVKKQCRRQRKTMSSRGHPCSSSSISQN
The experiment in a line: pull-down; HEK293 cells co-transfected with the GST fusion and V5-SKR-1; lysed two days after transfection; glutathione-Sepharose 4B at room temperature for 1 h; washed with PBS+0.1% Triton-X; blot with anti-V5 mAb.

Consider “V5-SKR-1 fusion protein (from UniProt G5ECU1 1-176)”, for which the binding entry is on record as “binds”.
